Measured values: ChEMBL document CHEMBL4715790, “An Unusual Binding Model of the Methyl 9-Anilinothiazolo[5,4-f] quinazoline-2-carbimidates (EHT 1610 and EHT 5372) Confers High Selectivity for Dual-Specificity Tyrosine Phosphorylation-Regulated Kinases” (J Med Chem, 2016)
pIC50: −log10 of the molar value.

Amino acid sequences for entries named in this document (tags omitted).
UniProt Q9Y463, whole entry: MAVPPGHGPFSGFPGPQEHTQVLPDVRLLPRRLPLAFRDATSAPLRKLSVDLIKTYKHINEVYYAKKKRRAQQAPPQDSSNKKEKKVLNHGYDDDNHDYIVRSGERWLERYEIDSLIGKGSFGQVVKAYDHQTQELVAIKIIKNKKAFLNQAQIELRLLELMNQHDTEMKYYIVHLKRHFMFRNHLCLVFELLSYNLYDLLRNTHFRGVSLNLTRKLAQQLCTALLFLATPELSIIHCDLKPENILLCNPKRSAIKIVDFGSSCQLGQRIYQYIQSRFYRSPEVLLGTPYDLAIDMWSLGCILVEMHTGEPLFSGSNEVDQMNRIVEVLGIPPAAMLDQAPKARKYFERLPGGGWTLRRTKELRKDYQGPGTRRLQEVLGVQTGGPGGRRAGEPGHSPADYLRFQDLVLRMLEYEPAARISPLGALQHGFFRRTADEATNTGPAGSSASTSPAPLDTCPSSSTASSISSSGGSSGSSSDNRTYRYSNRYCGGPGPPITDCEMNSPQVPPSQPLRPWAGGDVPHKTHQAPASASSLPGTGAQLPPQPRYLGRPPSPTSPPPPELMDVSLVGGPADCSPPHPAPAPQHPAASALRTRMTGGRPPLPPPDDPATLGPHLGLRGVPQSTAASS

Molecular target: Dual specificity tyrosine-phosphorylation-regulated kinase 1B (Homo sapiens, UniProt Q9Y463)

COc1ccc2c(c1)[nH]c1c(C)nccc12 [HARMINE]
pIC50: 7.24
